Measured values as given in article doi:10.1101/2021.06.01.446599.
No constants are given. Whether binding was seen depends on the method and setting. Some entries that bind do so weakly or less than the wild type. Tags and fused reporters may be left off the sequences shown.

T1: GFP::PKC-3 (C. elegans) (UniProt Q19266)
T1 sequence: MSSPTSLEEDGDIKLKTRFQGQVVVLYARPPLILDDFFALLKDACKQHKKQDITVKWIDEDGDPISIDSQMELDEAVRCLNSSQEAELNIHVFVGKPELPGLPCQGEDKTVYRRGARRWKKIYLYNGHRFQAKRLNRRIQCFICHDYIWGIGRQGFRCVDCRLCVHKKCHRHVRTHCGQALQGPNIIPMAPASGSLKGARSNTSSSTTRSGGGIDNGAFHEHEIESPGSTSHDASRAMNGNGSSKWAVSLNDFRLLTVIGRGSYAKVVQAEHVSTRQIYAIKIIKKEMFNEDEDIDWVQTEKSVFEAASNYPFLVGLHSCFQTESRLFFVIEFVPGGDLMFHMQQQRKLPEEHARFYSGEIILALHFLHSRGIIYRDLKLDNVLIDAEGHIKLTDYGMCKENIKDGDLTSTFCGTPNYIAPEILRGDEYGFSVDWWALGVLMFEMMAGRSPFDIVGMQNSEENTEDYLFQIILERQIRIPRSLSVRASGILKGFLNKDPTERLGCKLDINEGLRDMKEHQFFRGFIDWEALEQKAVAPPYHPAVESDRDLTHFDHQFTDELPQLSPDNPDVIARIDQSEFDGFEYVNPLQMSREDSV

T2: GFP::AID::PAR-3 (C. elegans) (UniProt Q17353)
T2 sequence: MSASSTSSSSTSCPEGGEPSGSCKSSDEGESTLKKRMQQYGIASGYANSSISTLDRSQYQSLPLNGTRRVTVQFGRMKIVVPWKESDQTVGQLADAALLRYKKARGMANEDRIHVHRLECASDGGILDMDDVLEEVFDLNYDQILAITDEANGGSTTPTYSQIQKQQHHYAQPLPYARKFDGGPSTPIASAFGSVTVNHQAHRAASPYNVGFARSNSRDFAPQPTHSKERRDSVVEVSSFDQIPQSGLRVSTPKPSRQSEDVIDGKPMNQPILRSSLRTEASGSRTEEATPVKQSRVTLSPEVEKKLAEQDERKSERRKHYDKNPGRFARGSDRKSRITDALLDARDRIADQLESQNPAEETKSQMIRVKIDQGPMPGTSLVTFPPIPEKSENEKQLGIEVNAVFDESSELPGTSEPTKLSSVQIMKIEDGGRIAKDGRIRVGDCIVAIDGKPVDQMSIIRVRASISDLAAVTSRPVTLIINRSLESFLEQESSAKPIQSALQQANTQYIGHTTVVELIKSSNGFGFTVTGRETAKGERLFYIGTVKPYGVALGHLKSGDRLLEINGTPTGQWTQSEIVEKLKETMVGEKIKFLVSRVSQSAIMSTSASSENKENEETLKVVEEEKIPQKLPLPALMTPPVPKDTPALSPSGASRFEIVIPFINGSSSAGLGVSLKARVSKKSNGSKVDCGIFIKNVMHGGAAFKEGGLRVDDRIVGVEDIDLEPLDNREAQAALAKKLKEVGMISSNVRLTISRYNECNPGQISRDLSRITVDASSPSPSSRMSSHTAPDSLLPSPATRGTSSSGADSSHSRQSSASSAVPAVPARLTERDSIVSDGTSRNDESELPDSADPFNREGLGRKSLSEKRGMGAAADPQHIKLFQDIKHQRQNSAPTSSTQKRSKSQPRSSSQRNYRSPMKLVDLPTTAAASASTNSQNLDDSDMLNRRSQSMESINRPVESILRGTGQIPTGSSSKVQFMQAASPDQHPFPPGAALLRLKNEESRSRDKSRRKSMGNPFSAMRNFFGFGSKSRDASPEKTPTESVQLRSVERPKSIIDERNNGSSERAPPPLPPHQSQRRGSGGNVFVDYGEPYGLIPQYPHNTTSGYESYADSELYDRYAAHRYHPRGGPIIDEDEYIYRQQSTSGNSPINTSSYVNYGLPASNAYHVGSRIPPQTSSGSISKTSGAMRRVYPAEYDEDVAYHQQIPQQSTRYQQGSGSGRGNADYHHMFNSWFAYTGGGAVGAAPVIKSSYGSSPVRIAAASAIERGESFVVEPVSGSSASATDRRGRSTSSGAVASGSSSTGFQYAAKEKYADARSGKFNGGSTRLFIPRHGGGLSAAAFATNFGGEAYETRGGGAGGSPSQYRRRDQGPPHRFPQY

T3: GFP::AID::PKC-3 (C. elegans) (UniProt Q19266)
T3 sequence: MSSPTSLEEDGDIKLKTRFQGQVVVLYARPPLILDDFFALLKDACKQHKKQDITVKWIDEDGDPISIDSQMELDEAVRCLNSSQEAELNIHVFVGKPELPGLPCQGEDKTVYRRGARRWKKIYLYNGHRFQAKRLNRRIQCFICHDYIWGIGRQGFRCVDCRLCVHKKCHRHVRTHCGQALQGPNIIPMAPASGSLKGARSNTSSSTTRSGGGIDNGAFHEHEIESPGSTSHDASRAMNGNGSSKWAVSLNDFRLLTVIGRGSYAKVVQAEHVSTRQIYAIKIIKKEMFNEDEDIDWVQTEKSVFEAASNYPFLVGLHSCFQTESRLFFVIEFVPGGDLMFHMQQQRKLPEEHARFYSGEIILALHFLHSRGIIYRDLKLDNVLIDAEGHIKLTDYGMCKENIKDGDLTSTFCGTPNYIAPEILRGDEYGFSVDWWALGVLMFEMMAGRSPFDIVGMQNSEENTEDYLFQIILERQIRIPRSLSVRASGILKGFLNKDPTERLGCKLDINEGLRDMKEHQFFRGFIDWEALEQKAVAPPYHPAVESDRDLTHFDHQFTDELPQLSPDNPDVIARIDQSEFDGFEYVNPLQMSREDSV

T4: PAR-6::mCherry (C. elegans) (UniProt Q9NAN2)
T4 sequence: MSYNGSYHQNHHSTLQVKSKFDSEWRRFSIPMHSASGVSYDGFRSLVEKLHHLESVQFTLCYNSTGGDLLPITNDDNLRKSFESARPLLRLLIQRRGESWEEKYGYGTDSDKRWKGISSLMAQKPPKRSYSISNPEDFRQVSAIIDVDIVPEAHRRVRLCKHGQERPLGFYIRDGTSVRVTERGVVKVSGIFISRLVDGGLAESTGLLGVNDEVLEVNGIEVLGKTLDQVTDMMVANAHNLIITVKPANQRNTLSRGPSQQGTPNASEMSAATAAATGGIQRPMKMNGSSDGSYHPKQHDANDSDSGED

B1: mKate2::PAR-6 (protein, UniProt Q9NAN2 1-309)
chain: MSYNGSYHQNHHSTLQVKSKFDSEWRRFSIPMHSASGVSYDGFRSLVEKLHHLESVQFTLCYNSTGGDLLPITNDDNLRKSFESARPLLRLLIQRRGESWEEKYGYGTDSDKRWKGISSLMAQKPPKRSYSISNPEDFRQVSAIIDVDIVPEAHRRVRLCKHGQERPLGFYIRDGTSVRVTERGVVKVSGIFISRLVDGGLAESTGLLGVNDEVLEVNGIEVLGKTLDQVTDMMVANAHNLIITVKPANQRNTLSRGPSQQGTPNASEMSAATAAATGGIQRPMKMNGSSDGSYHPKQHDANDSDSGED
B2: PAR-6::mCherry (protein, UniProt Q9NAN2 1-309)
chain: MSYNGSYHQNHHSTLQVKSKFDSEWRRFSIPMHSASGVSYDGFRSLVEKLHHLESVQFTLCYNSTGGDLLPITNDDNLRKSFESARPLLRLLIQRRGESWEEKYGYGTDSDKRWKGISSLMAQKPPKRSYSISNPEDFRQVSAIIDVDIVPEAHRRVRLCKHGQERPLGFYIRDGTSVRVTERGVVKVSGIFISRLVDGGLAESTGLLGVNDEVLEVNGIEVLGKTLDQVTDMMVANAHNLIITVKPANQRNTLSRGPSQQGTPNASEMSAATAAATGGIQRPMKMNGSSDGSYHPKQHDANDSDSGED
B3: GFP::AID::PKC-3 (protein, UniProt Q19266 1-597)
chain: MSSPTSLEEDGDIKLKTRFQGQVVVLYARPPLILDDFFALLKDACKQHKKQDITVKWIDEDGDPISIDSQMELDEAVRCLNSSQEAELNIHVFVGKPELPGLPCQGEDKTVYRRGARRWKKIYLYNGHRFQAKRLNRRIQCFICHDYIWGIGRQGFRCVDCRLCVHKKCHRHVRTHCGQALQGPNIIPMAPASGSLKGARSNTSSSTTRSGGGIDNGAFHEHEIESPGSTSHDASRAMNGNGSSKWAVSLNDFRLLTVIGRGSYAKVVQAEHVSTRQIYAIKIIKKEMFNEDEDIDWVQTEKSVFEAASNYPFLVGLHSCFQTESRLFFVIEFVPGGDLMFHMQQQRKLPEEHARFYSGEIILALHFLHSRGIIYRDLKLDNVLIDAEGHIKLTDYGMCKENIKDGDLTSTFCGTPNYIAPEILRGDEYGFSVDWWALGVLMFEMMAGRSPFDIVGMQNSEENTEDYLFQIILERQIRIPRSLSVRASGILKGFLNKDPTERLGCKLDINEGLRDMKEHQFFRGFIDWEALEQKAVAPPYHPAVESDRDLTHFDHQFTDELPQLSPDNPDVIARIDQSEFDGFEYVNPLQMSREDSV
B4: DLG-1::mCherry (protein, UniProt G5ECY0 1-967)
chain: MSHESSEKAHKAIENVEDYCQTLTRHGNEELRTNLERVITTFKSNLMHSLLDIHDLYEQTLLSERKSDAEKNMEVRRVIERLEGGPHSYNSRPAATTSTSNYNLSSTTPLISDLRDRGGFSYLNGGGLGNGLGNGLGNGLLSSPYNSSSTHYLHERQRQTSHDGTWRETTTRTVDTPSGLERRVVEHTGVIDDHGRKWELENIVLEKGHTGLGFSITGGMDQPTEDGDTSIYVTNIIEGGAALADGRMRKNDIITAVNNTNCENVKHEVAVNALKSSGNVVSLSLKRRKDEAFLPIGGNFGGSTSYLRSGVTPSVSAGNLQHAIHSPSAPIHPPPPPPVHHGSLSQLSVGQYRSTRPNTSVIDLVKGARGLGFSIAGGQGNEHVKGDTDIYVTKIIEEGAAELDGRLRVGDKILEVDHHSLINTTHENAVNVLKNTGNRVRLLIQQGTGAIFNDSASQQFMPTTPILRPSSVQDYNRSQMGSQSHLSYGGPLNTSYSSQAPIAIPLEPRPVQLVKGQNGLGFNIVGGEDNEPIYISFVLPGGVADLSGNVKTGDVLLEVNGVVLRNATHKEAAEALRNAGNPVYLTLQYRPQEYQIFESKIEKLRNDVIAQSRMGTLSRKSEYVRALFDYDPSRENSVAPHRSMGFNYGDILHIINSSDDEWWTARKVHENGEETAEGVIPSKKRVEKRERLRRKQVNFNSGSQSLGRNSSTTGLENRRGSRSQLSFSRKFPFVKSTDRLNDLNEESSNVAEEPVWSYQAVEQQAINYVRPVIILGALKDRINDELVNRDPSKFSSCVPHTSRPPREGEVNGRDYYFVNKHNMEEDVKNNLFIEAGQFQNNLYGTSIQSVRDVANQGRHCILDVSGNAIRRLQSNANIQPISIFIKPSSAQQILELDSQLATNRQDDRAMSGEEAQAQYSRCHRIEQTFGDLFTQEISNVHSANDVLSKVYSIISRESQTPIWVPRH

Legend:
Test in all cases: CeLINC
GFP::PKC-3 (C. elegans) = target: T1, GFP::PKC-3 (C. elegans)
[1] = target: T2, GFP::AID::PAR-3 (C. elegans)
[2] = target: T3, GFP::AID::PKC-3 (C. elegans)
[3] = target: T4, PAR-6::mCherry (C. elegans)

| Molecule | binding (GFP::PKC-3 (C. elegans)) | other results |
| --- | --- | --- |
| mKate2::PAR-6(ΔPB1) (from UniProt Q9NAN2 1-309) | no binding | – |
| B1 | binds | – |
| B2 | – | binding [1]: binds; binding [2]: binds |
| B3 | – | binding [3]: binds |
| B4 | no binding | – |
